In PubChem BioAssay AID1918931 (Molecular Pharmacology Branch, DTP, NCI, 2023):
Values joined by “and” are separate entries in the source; they are usually repeats but may differ in a detail not shown here. Identical values can stand only once. This continues a long series; more values of the same kind are listed elsewhere.

Test system: 138582-337-R-J1-PDC complex spheroid viability
Assay: Anticancer human tumor 138582-337-R-J1-PDC patient-derived Merkel cell tumor cell line growth inhibition
Conditions: compound 10 µM; hits give low values
Description: Multicellular complex tumor spheroid response to LSD1 Inhibitor Iadademstat in combination with a variety of drugs and investigational agents in selected tumor cell lines
The current study was undertaken to assess response to LSD1 inhibitors in combination with standard-of-care drugs and investigational agents in solid tumor complex spheroid models as well as in the K-562 leukemia. Complex spheroids include a stromal component modeled by human endothelial cells (HUVEC) and fibroblasts modeled by human mesenchymal stem cells (MSCs). The concentration ranges selected for each drug and investigational agent were based upon clinically achievable concentrations if the clinical Cmax of the agent was known.
Compounds. The drugs and investigational agents used in this study are listed on Table 1. All of the agents used, including staurosporine (NSC755774) and gemcitabine (NSC613327), were obtained from the Developmental Therapeutics Program, NCI. FDA-approved anticancer drugs are available from the NCI at http://dtp.nci.nih.gov/branches/dscb/oncology_drugset_explanation.html. Drugs and investigational agents were >95% pure by proton nuclear magnetic resonance (NMR) and liquid chromatography/mass spectrometry (LC/MS). […] If the clinical Cmax for an agent had not been determined, the highest concentration tested was 10 microM. […]
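Also: spheroids exposed to agents for 7 days; 100% = DMSO vehicle control viability.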

Q: With NC1CCC(NC2CC2c2ccccc2)CC1 (stereo unspecified) as the compound, how does the viability, T/C read?
A: 89.8% and 75.6%
